This is an account of results in paper PMC7862700.

Only a part is listed here, and it is no random draw. At the low end of the ranking the order means little.

The assay addresses T1, SPIC (UniProt Q8N5J4).
T1 sequence: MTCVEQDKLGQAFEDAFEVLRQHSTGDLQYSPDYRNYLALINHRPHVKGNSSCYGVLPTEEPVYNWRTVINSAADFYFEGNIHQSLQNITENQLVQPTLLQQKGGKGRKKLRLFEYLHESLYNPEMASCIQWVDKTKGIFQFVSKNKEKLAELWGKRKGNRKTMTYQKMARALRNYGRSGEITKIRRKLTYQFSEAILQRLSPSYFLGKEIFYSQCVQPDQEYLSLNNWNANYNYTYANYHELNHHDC
The assay can be described thus: DAPPL (digital affinity profiling via proximity ligation, sequencing). As to conditions: 10 mM Tris-HCl pH 7.5, 50 mM NaCl, 1 mM DTT, 4% glycerol, room temperature, 30 min; GST-TFs on glutathione beads, 16-mer random dsDNA library, 0.1% …; high values mean tight binding; double strand, one strand shown; scale: fold enrichment (6-mer frequency, TF over GST control).
Sequence CCTTTA gave a binding signal of 1.32. The value for AACAAG was 1.15. The value for CATTTG was 1.15; that for AAATCA was 1.18. With TGATGA, the binding signal was 1.14. Under TCCTGG stands 1.54; under CCGGCC, 1.32; under GCACGC, 1.06. The value for GCACAT was 1.14; that for CTTGTA was 1.22.

GCCCCC had a binding signal of 1.26. CGGAAG displayed a binding signal of 2.79. Under GACCGG stands 0.997; under TCTGGC, 1.38; under TATCAA, 0.906. Under ATTAAA stands 1.14; under ACACTC, 1.01.

For TGATAC, the binding signal amounted to 0.977.

ACGACC yielded a binding signal of 0.829. Under TAGATC stands 0.937; under CACCGG, 0.992. The value for CGTCCT was 1.27. The sequence ATCCTA showed a binding signal of 1.44. As for GCCACT, the binding signal was found to be 1.12.

As to TCGCAT, the binding signal stood at 1.02.

For the sequence TAACAG, the binding signal worked out at 0.977. The value for CCCAAG was 0.968; that for TTATCC was 1.51; that for CGACGC was 1.09. On to CTTCAC, for which the binding signal was 1.57.

Regarding TCCCTG, the binding signal came out at 1.38. The value for ACGACA was 1.18; that for TAAACT was 1.12.

The sequence ATAAGC registered a binding signal of 1.08.

For ACCGCA, the binding signal was 0.937. Under TCAACG stands 1.1; under ACTATT, 1.44; under CCATCC, 1.33.

AATGAC displayed a binding signal of 1.36.
